Assay results published in PubChem BioAssay AID2685 (National Center for Advancing Translational Sciences (NCATS), 2010).
The other results are listed elsewhere or left out. The main result of the screen is listed elsewhere. These columns were measured beside it and carry no call. Compounds called inactive in the main read-out are mostly missing here. The note in brackets gives the kind of curve behind each potency; many fits are weak.

Test: qHTS Assay for Lipid Storage Modulators in Drosophila S3 Cells;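 as to cell number change: cells counted by Cell Tracker Red CMTPX staining in the red channel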
Conditions: BODIPY lipid droplet fluorescence, 18-24 h; for cell number change: measured here: cell count max response, cells fed with added oleic acid
Outline: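 Laser-scanning cytometry quantifies lipid droplet accumulation (500–530 nm total intensity; droplet/cell object ratio) in oleic acid-fed (400 uM added) Drosophila S3 cells treated with a concentration series. 20 uM Triacsin C defined 100% inhibition.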

[1] = measured here: lipid fluorescence (Fed channel) AC50, cells fed with added oleic acid
[2] = measured here: cell number channel AC50, cells fed with added oleic acid

Row | SMILES | cell number change [%] | AC50 [1] | AC50 [2]
1 | COc1cccc(/C=N/Nc2ccc(C(=O)O)cc2)c1O | -22.9 | 6.51 µM [falling, partial curve, poor fit] | –
2 | COc1ccccc1CNC(=O)Cn1cc2c(n1)CCCC2 | 13.9 | 5.17 µM [falling, partial curve, poor fit] | –
3 | O=C(C1CCCN(c2ncccn2)C1)N1CCc2ccccc21 (stereo not drawn) | -31.5 | 0.13 µM [rising, full curve, poor fit] | 0.146 µM [falling, full curve, poor fit]
4 | COc1ccc(CN(C(=O)c2nsc(Cl)c2Cl)C(C(=O)NC2CCCCC2)c2ccc(OC)cc2)cc1 (stereo not drawn) | -33 | 20.6 µM [falling, partial curve] | 18.4 µM [falling, single point]
5 | COc1cc(CN2CCN(c3ccccc3F)CC2)cc(OC)c1O | -10.2 | 23.1 µM [rising, single point] | –
6 | COc1ccc(C)cc1S(=O)(=O)N1CCCC(N2CCOCC2)C1 (stereo not drawn) | 9.62 | 29.1 µM [rising, single point] | –
7 | CC(CCc1ccccc1)NC(=O)COC(=O)c1ccc(S(C)(=O)=O)c([N+](=O)[O-])c1 (stereo not drawn) | -32.6 | 3.26 µM [falling, full curve] | 4.61 µM [falling, full curve, poor fit]
8 | C=CCOc1ccccc1CN1CCC(C(=O)Nc2cccc(-c3ccn[nH]3)c2)CC1 | 24.7 | 18.4 µM [rising, partial curve] | –
9 | O=C(N/N=C/c1cc2c3c(c1O)CCCN3CCC2)c1ccccc1O | 4.18 | 4.61 µM [rising, single point] | –
10 | O=C1OCCC1Sc1nc2cc(Cl)ccc2n1Cc1ccccc1 (stereo not drawn) | – | 29.1 µM [rising, single point] | –
11 | Cc1ccc(-c2noc(CN(C(=O)CCN3C(=O)c4ccccc4C3=O)C(C)C)n2)cc1 | 175 | – | 29.1 µM [rising, single point]
12 | CCn1c(COc2ccc(C)cc2)nnc1SCC(=O)C(C)(C)C | -9 | – | –
13 | CCSc1ccc([C@@H]2[C@@H]3C(=O)N(C)C(=O)[C@@H]3[C@]3(C(=O)OC)CCCCN23)cc1 | -10.8 | 8.2 µM [falling, partial curve, poor fit] | –
14 | CC1CCC(NC(=O)C2CCC(CNc3c(N4CCCCC4)c(=O)c3=O)CC2)CC1 (stereo not drawn) | -17 | – | –
15 | COc1cc(CNC(C)c2ccccc2)cc(Br)c1OCc1ccc(F)cc1 (stereo not drawn) | -11.4 | 29.1 µM [falling, single point] | –
16 | O=C(NCCCN1CCCC1=O)c1cccc(C(F)(F)F)c1 | -10.9 | 13 µM [falling, partial curve] | –
17 | C=CCNC(=O)NC(=O)c1csc([N+](=O)[O-])c1 | – | 6.51 µM [falling, single point] | 6.51 µM [falling, single point]
18 | COc1cc(SC)ccc1C(=O)Nc1ccc2c(c1)CCC2 | -17.1 | 0.82 µM [falling, full curve] | –
19 | CN(C)c1nc(NCc2ccccc2)nc(N/N=C/c2ccc3c(c2)OCO3)n1 | 20.6 | 0.651 µM [rising, full curve] | –
20 | COc1ccc(OC)c(C(C)NC=O)c1 (stereo not drawn) | -167 | – | 29.1 µM [falling, single point]
21 | CC(C)(C)c1ccc(/C=C/C(=O)Nc2ncccn2)cc1 | -19 | 6.51 µM [falling, partial curve] | –
22 | COc1ccccc1N(C)S(=O)(=O)c1ccc(C(=O)N2CCCC(C(F)(F)F)C2)cc1 (stereo not drawn) | – | – | 2.31 µM [rising, partial curve]

Row | SMILES | cell number change [%] | AC50 [1] | AC50 [2]
23 | O=C(NNC(=S)NCCCN1CCOCC1)c1ccncc1 | -37.3 | – | 14.1 µM [falling, partial curve]
24 | CCc1cccc(OCCCCN(CC)CC)c1 | -26 | – | –
25 | COc1ccc(NC(=O)C2CCN(C(=O)NCc3ccccc3)CC2)cc1 | 11.9 | 8.2 µM [rising, partial curve] | –
26 | CCCOC1CCCN(C(=O)c2cc(COc3c(F)cccc3F)on2)C1 (stereo not drawn) | -22.8 | 32.6 µM [falling, single point] | –
27 | Cc1cc2c(SCC(=O)NC3CCCCC3)ncnc2s1 | 3.04 | – | –
28 | COc1cccc(-c2cn3nc(C)c(C)nc3n2)c1 | 40.4 | – | 3.26 µM [rising, full curve, poor fit]
29 | COCCNC(=O)c1c(CSc2ccc(F)cc2)noc1C(=O)NCc1ccccc1 | 24.2 | – | –
30 | COc1ccc(Oc2nc(C)cc(C)c2S(C)(=O)=O)cc1 | 16.1 | – | –
31 | Cc1ccc(S(=O)(=O)c2nc(-c3ccccc3)oc2SCC(=O)NCC2CCCO2)cc1 (stereo not drawn) | -3.97 | 18.4 µM [falling, partial curve, poor fit] | –
32 | O=C(Nc1ccc(Br)cc1F)C1CCCN(S(=O)(=O)c2cnc[nH]2)C1 (stereo not drawn) | 6.91 | – | –
33 | O=C(Cn1c(=O)oc2ccccc21)Nc1ccc(Br)cc1 | 144 | – | 29.1 µM [rising, single point]
34 | Cc1cc[n+](C(C)C(=O)c2ccc(-c3ccccc3)cc2)cc1 (stereo not drawn) | -2.26 | 32.6 µM [falling, single point] | –
35 | O=C(CN1CCCCCC1)Nc1cccc(Br)c1 | -12.4 | – | –
36 | Cn1ccnc1SCC(=O)c1ccc(Br)cc1 | 16.6 | – | –
37 | CCOC(=O)C1CCN(S(=O)(=O)c2cccc(-c3cn4cc(Cl)ccc4n3)c2)CC1 | 1.53 | – | –
38 | Cc1ccc(NC2=C(Cl)C(=O)N(C3CCCCC3)C2=O)cc1 | 2.4 | 6.51 µM [rising, partial curve, poor fit] | 6.51 µM [rising, partial curve, poor fit]
39 | COc1cc(C(=O)Nc2ccc([N+](=O)[O-])cn2)cc(OC)c1OC | 13.4 | – | –
40 | CCOc1ccc(N(CC(=O)Nc2nccs2)S(=O)(=O)c2c(C)noc2C)cc1 | 9.28 | – | –
41 | Cc1cc(NC(=O)CSc2nc3c(cc2C#N)CCCCC3)no1 | -11.2 | – | –
42 | COc1ccc(NC(=O)CN(c2ccc(Cl)cc2)S(C)(=O)=O)cc1OC | -8.07 | – | –
43 | CCOCCCn1c(=S)[nH]c2cc(C(=O)NC3CCCC(C)C3C)ccc2c1=O (stereo not drawn) | 2.67 | 6.51 µM [falling, single point] | –
44 | Cc1ccc(NC2c3ncccc3C(=O)N2c2ccccc2C)cc1C (stereo not drawn) | -12.3 | – | –

Row | SMILES | cell number change [%] | AC50 [1] | AC50 [2]
45 | CC1=NN(C(=O)c2ccc(C)o2)C(O)(c2ccccc2)C1 (stereo not drawn) | -5.94 | 2.06 µM [rising, partial curve, poor fit] | 0.731 µM [rising, partial curve, poor fit]
46 | c1ccc(-c2csc3nnc(SCc4ccc5c(c4)OCO5)n23)cc1 | – | 0.164 µM [rising, full curve] | 0.116 µM [rising, full curve]
47 | O=C(CCC(=O)c1cccs1)NNC(=O)c1ccccc1O | 34.3 | – | 32.6 µM [rising, single point]
48 | CN1C(=O)/C(=C/c2ccccc2OCc2ccccc2F)NC1=S | -22.6 | 1.16 µM [falling, full curve, poor fit] | –
49 | CCOC(=O)C1CCCN(C(=O)c2ccc(NC(=O)CC3SC(N4CCCC4)=NC3=O)cc2)C1 (stereo not drawn) | -18.1 | – | –
50 | Cc1ccc(S(=O)(=O)N2CCN(c3ncnc4sccc34)CC2)cc1C | -53.4 | – | 8.2 µM [falling, partial curve]
51 | Cn1c(=O)n(C)c2cc(NS(=O)(=O)c3ccc(F)cc3)ccc21 | -31.5 | – | –
52 | COc1ccc(C2CC(=O)C3=C(C2)NC(C)=C(C#N)C3c2ccc(N(C)C)cc2)cc1 (stereo not drawn) | -71.1 | – | 4.11 µM [falling, full curve]
53 | COc1ccc(C(=O)Nc2ccc(-c3ccc(C)o3)cc2)cc1S(=O)(=O)N1CCOCC1 | -13.6 | – | –
54 | CCO/C(C)=N/n1c2nc3ccccc3nc2c2c(=O)n(Cc3ccccc3Cl)c(C)nc21 | 2.24 | 0.13 µM [rising, full curve, poor fit] | –
55 | COc1ccc(CCC(=O)OCC(=O)Nc2ccccc2OC(F)F)cc1OC | – | – | 0.146 µM [falling, full curve, poor fit]
56 | COc1cccc(-n2c(SCC#N)nnc2-c2cnccn2)c1 | -15 | – | –
57 | CCOc1ccc(NC(=S)N2CCN(S(=O)(=O)c3ccc(OC)cc3)CC2)cc1 | 13.8 | 14.6 µM [rising, partial curve, poor fit] | –
58 | N=C1C(c2ccccc2)=C(O)CN1c1cccc(S(=O)(=O)NCc2ccco2)c1 | -51.2 | 3.66 µM [falling, full curve] | 3.26 µM [falling, full curve]
59 | O=C(Nc1ccc(NC(=O)c2ccco2)cc1)c1ccc2c(c1)OCCO2 | – | 29.1 µM [falling, partial curve, poor fit] | –
60 | Cc1nn(-c2ccccc2)c(N2CCCC2)c1/C=N/n1cnc2scc(-c3ccccc3)c2c1=O | 30.4 | 0.651 µM [rising, full curve, poor fit] | 3.66 µM [rising, partial curve]
61 | O=C(NC1=NCCS1)c1cccs1 | 2.95 | 0.731 µM [falling, single point] | –
62 | CCC(C)(C)n1nnnc1C(c1ccc(F)cc1)N1CCN(C(=O)c2ccco2)CC1 (stereo not drawn) | 14.2 | – | –
63 | Cc1nn(Cc2ccccc2)c(C)c1NC(=O)CSc1nc(-c2ccccc2)nc2c1cnn2-c1ccccc1 | -13.4 | 6.51 µM [rising, partial curve, poor fit] | –
64 | COc1ccc(S(=O)(=O)N2CCCCCC2)cc1C(=O)NCc1ccc(C)cc1 | 29.3 | 18.4 µM [falling, partial curve, poor fit] | –
65 | O=C(O)c1ccc(Cl)c(NCc2ccncc2)c1 | -0.647 | 6.51 µM [rising, single point] | –

Whole records as entered above. Values in the order: cell number change [%] | AC50 [1] | AC50 [2]
`Cc1nn(-c2ccccc2)c(N2CCCC2)c1/C=N/n1cnc2scc(-c3ccccc3)c2c1=O` in the list: 30.4 | 0.651 µM [rising, full curve, poor fit] | 3.66 µM [rising, partial curve]
`CCOc1ccc(NC(=S)N2CCN(S(=O)(=O)c3ccc(OC)cc3)CC2)cc1` in the list: 13.8 | 14.6 µM [rising, partial curve, poor fit] | –
`O=C(NC1=NCCS1)c1cccs1` in the list: 2.95 | 0.731 µM [falling, single point] | –
